PubChem BioAssay AID1259405 | NCATS, 2018

Aim: 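Knock-downs that lift recombinant protein yield in hamster ovary cells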 (primary screen)
Cells: Chinese hamster CHO-K1 ovary cells with stable secreted eGFP expression
Reagent: single siRNA against mouse genes, 0.8 pmol siRNA per well (2 µl of 400 nM stock)
Duration: 3 days
Measurement: 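Per-well intracellular GFP measured by laser scanning cytometry, plus viability from ATP luminescence, each relative to plate median of non-targeting control wells, in %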
Scale: GFP, % of control: higher = more GFP per well, higher productivity; viability (ATP), % of control: higher = more viable cells (more ATP)
Hit rule: 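a knock-down is called active if GFP reaches 120% or more of non-targeting control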
Here is an unselected part of about 50,000 deposited reagents. In the full data, about 4,000 (8%) got an active call. 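Mouse siRNA library applied to hamster cells; one well for each siRNA.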 Unmarked entries are inactive. The numbers tell different reagents against one gene apart. No sequences are given here.

no.	gene	siRNA no.	GFP, % of control	viability (ATP), % of control
1	Runx2	1	65.2	72.9
2	Runx2	2	68.1	75.4
3	Runx2	3	93.2	84.6
4	Ankrd44	1	99.4	61.2
5	Ankrd44	2	54.4	54.3
6	Ankrd44	3	58.3	78.6
7	Kynu	1	125 (active)	31.7
8	Kynu	2	99.5	87.1
9	Kynu	3	62.9	48.5
10	Timm17b	1	72.4	51.2
11	Timm17b	2	88	70.1
12	Timm17b	3	67	56.3
13	Nop10	1	74.9	67.3
14	Nop10	2	97.2	83.6
15	Nop10	3	90.2	110
16	Vars2	1	72.9	28.3
17	Vars2	2	84.2	75
18	Vars2	3	70.6	57.4
19	Npb	1	114	89.2
20	Npb	2	81.7	84.8
21	Npb	3	75.7	72.3
22	Spats2	1	97.4	59.8
23	Spats2	2	75.2	122
24	Spats2	3	159 (active)	136
25	Prkar2b	1	82.9	47.3
26	Prkar2b	2	75.7	82.4

The list goes on; the last 4 above are carried over.
no.	gene	siRNA no.	GFP, % of control	viability (ATP), % of control
23	Spats2	2	75.2	122
24	Spats2	3	159 (active)	136
25	Prkar2b	1	82.9	47.3
26	Prkar2b	2	75.7	82.4
27	2410004B18Rik	1	80.6	107
28	2410004B18Rik	2	110	81.7
29	2410004B18Rik	3	90	96.8
30	Gpd1	1	103	77
31	Gpd1	2	77.4	76.2
32	Gpd1	3	76.3	64.8
33	Or4c58	1	90.8	55.3
34	Or4c58	2	73	68.9
35	Or4c58	3	84.9	102
36	Or1e35	1	60	62.2
37	Or1e35	2	62.6	61.5
38	Or1e35	3	89.5	107
39	Or4p19	1	70.7	37
40	Or4p19	2	20.4	67.5
41	Or4p19	3	31	73.9
42	Rpl32	1	64.8	74.8
43	Rpl32	2	58.5	33.7
44	Rpl32	3	26.9	29.5
45	Trim42	1	27.6	24.5
46	Trim42	2	89.1	90.2
47	Trim42	3	90.6	118
48	Or5d36	1	49.2	41.2
49	Or5d36	2	108	96.8
50	Or5d36	3	55.6	55.5
51	Ccdc73	1	79.7	63.2
52	Ccdc73	2	71.6	68.2
53	Ccdc73	3	116	125
54	Rit2	1	122 (active)	128
55	Rit2	2	103	81
56	Rit2	3	71	64.2
57	Mier3	1	90.8	50.4
58	Mier3	2	105	75.4
59	Mier3	3	106	102
